# Laboratory results: the supplement of paper PMC8728848
# The list shows a part of the results.
# B1: ArathEULS3 TAP (Arabidopsis thaliana) (protein)
# chain: IDENLYFQGGSMDEKTTGWRGGHVVEGLAGELEQLRARLEHHPQGQREPGGGGSLEITSLYKKAGFMEHHHQHHRHHQRDDGEDDRQSFGVPPPHVDAPPQPHGLYQSQPHFDPYAPTPQAPAPYRSETQFEPHAPPPYRSEPYFETPAPPPSFGHVSHVGHQSPNESYPPEHHRYGGYQQPSNSLLESHGDHSGVTHVAHHSSNQPQSSSGVYHKPDENRLPDNLAGLAGRATVKVYSKAEPNYNLTIRDGKVILAPADPSDEAQHWYKDEKYSTKVKDADGHPCFALVNKATGEAMKHSVGATHPVHLIRYVPDKLDESVLWTESKDFGDGYRTIRMVNNTRLNVDAYHGDSKSGGVRDGTTIVLWDWNKGDNQLWKIFPF
# Experiments:
# Assay in all cases: glycan array binding signal (z-score within array); higher = stronger binding
# Settings in all cases: glycan notation: IUPAC condensed, linker removed
# Gal(b1-4)Glc = target: Gal(b1-4)Glc
# Procedure, shortened: (§1)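 The binding signal is a Z-score computed within each array and averaged over linkers. Arrays of the same protein sequence at different concentrations or buffers were also averaged together. Data originate from 3228 arrays in the Consortium for Functional Glycomics database, kept only where the protein sequence was available.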
# Gal(b1-4)Glc6S = target: Gal(b1-4)Glc6S
# Procedure, shortened: as §1
# Gal(b1-4)GlcNAc = target: Gal(b1-4)GlcNAc
# Procedure, shortened: as §1
# [1] = target: Gal(b1-4)GlcNAc(a1-6)Gal(b1-4)GlcNAc
# Procedure, shortened: as §1
# Gal(b1-4)GlcNAc(b1-2)Man = target: Gal(b1-4)GlcNAc(b1-2)Man
# Procedure, shortened: as §1
# [2] = target: Gal(b1-4)GlcNAc(b1-2)Man(a1-3)Man(b1-4)GlcNAc(b1-4)GlcNAc
# Procedure, shortened: as §1
# [3] = target: Gal(b1-4)GlcNAc(b1-2)Man(a1-3)[Gal(b1-4)GlcNAc(b1-2)Man(a1-6)]Man(b1-4)GlcNAc(b1-4)GlcNAc
# Procedure, shortened: as §1
# [4] = target: Gal(b1-4)GlcNAc(b1-2)Man(a1-3)[Gal(b1-4)GlcNAc(b1-2)Man(a1-6)]Man(b1-4)GlcNAc(b1-4)[Fuc(a1-6)]GlcNAc
# Procedure, shortened: as §1
# [5] = target: Gal(b1-4)GlcNAc(b1-2)Man(a1-3)[Gal(b1-4)GlcNAc(b1-2)Man(a1-6)][Gal(b1-4)GlcNAc(b1-4)]Man(b1-4)GlcNAc(b1-4)[Fuc(a1-6)]GlcNAc
# Procedure, shortened: as §1
# [6] = target: Gal(b1-4)GlcNAc(b1-2)Man(a1-3)[Gal(b1-4)GlcNAc(b1-2)Man(a1-6)][GlcNAc(b1-4)]Man(b1-4)GlcNAc(b1-4)[Fuc(a1-6)]GlcNAc
# Procedure, shortened: as §1
# [7] = target: Gal(b1-4)GlcNAc(b1-2)Man(a1-3)[GlcNAc(b1-2)Man(a1-6)]Man(b1-4)GlcNAc(b1-4)GlcNAc
# Procedure, shortened: as §1
# [8] = target: Gal(b1-4)GlcNAc(b1-2)Man(a1-3)[GlcNAc(b1-4)][Gal(b1-4)GlcNAc(b1-2)Man(a1-6)]Man(b1-4)GlcNAc(b1-4)GlcNAc
# Procedure, shortened: as §1
# [9] = target: Gal(b1-4)GlcNAc(b1-2)Man(a1-3)[Man(a1-6)]Man(b1-4)GlcNAc(b1-4)GlcNAc
# Procedure, shortened: as §1
# [10] = target: Gal(b1-4)GlcNAc(b1-2)Man(a1-6)Man(b1-4)GlcNAc(b1-4)GlcNAc
# Procedure, shortened: as §1
# [11] = target: Gal(b1-4)GlcNAc(b1-2)Man(a1-6)[GlcNAc(b1-2)Man(a1-3)]Man(b1-4)GlcNAc(b1-4)GlcNAc
# Procedure, shortened: as §1
# [12] = target: Gal(b1-4)GlcNAc(b1-2)Man(a1-6)[Man(a1-3)]Man(b1-4)GlcNAc(b1-4)GlcNAc
# Procedure, shortened: as §1
# [13] = target: Gal(b1-4)GlcNAc(b1-2)[Gal(b1-4)GlcNAc(b1-4)]Man(a1-3)[Gal(b1-4)GlcNAc(b1-2)Man(a1-6)]Man(b1-4)GlcNAc(b1-4)GlcNAc
# Procedure, shortened: as §1
# [14] = target: Gal(b1-4)GlcNAc(b1-2)[Gal(b1-4)GlcNAc(b1-4)]Man(a1-3)[Gal(b1-4)GlcNAc(b1-2)[Gal(b1-4)GlcNAc(b1-6)]Man(a1-6)]Man(b1-4)GlcNAc(b1-4)GlcNAc
# Procedure, shortened: as §1
# [15] = target: Gal(b1-4)GlcNAc(b1-2)[Gal(b1-4)GlcNAc(b1-4)]Man(a1-3)[GlcNAc(b1-4)][Gal(b1-4)GlcNAc(b1-2)Man(a1-6)]Man(b1-4)GlcNAc(b1-4)GlcNAc
# Procedure, shortened: as §1
# [16] = target: Gal(b1-4)GlcNAc(b1-2)[Gal(b1-4)GlcNAc(b1-4)]Man(a1-3)[GlcNAc(b1-4)][Gal(b1-4)GlcNAc(b1-2)[Gal(b1-4)GlcNAc(b1-6)]Man(a1-6)]Man(b1-4)GlcNAc(b1-4)GlcNAc
# Procedure, shortened: as §1
# [17] = target: Gal(b1-4)GlcNAc(b1-2)[Gal(b1-4)GlcNAc(b1-6)]Man(a1-6)[Gal(b1-4)GlcNAc(b1-2)Man(a1-3)]Man(b1-4)GlcNAc(b1-4)GlcNAc
# Procedure, shortened: as §1
# [18] = target: Gal(b1-4)GlcNAc(b1-2)[Gal(b1-4)GlcNAc(b1-6)]Man(a1-6)[Gal(b1-4)GlcNAc(b1-2)Man(a1-3)]Man(b1-4)GlcNAc(b1-4)[Fuc(a1-6)]GlcNAc
# Procedure, shortened: as §1
# [19] = target: Gal(b1-4)GlcNAc(b1-2)[Gal(b1-4)GlcNAc(b1-6)]Man(a1-6)[GlcNAc(b1-4)][Gal(b1-4)GlcNAc(b1-2)Man(a1-3)]Man(b1-4)GlcNAc(b1-4)GlcNAc
# Procedure, shortened: as §1
# [20] = target: Gal(b1-4)GlcNAc(b1-2)[Gal(b1-4)GlcNAc(b1-6)]Man(a1-6)[GlcNAc(b1-4)][Gal(b1-4)GlcNAc(b1-2)[Gal(b1-4)GlcNAc(b1-4)]Man(a1-3)]Man(b1-4)GlcNAc(b1-4)[Fuc(a1-6)]GlcNAc
# Procedure, shortened: as §1
# [21] = target: Gal(b1-4)GlcNAc(b1-3)Gal(b1-3)GalNAc
# Procedure, shortened: as §1
# [22] = target: Gal(b1-4)GlcNAc(b1-3)Gal(b1-3)GlcNAc
# Procedure, shortened: as §1
# [23] = target: Gal(b1-4)GlcNAc(b1-3)Gal(b1-4)Glc
# Procedure, shortened: as §1
# [24] = target: Gal(b1-4)GlcNAc(b1-3)Gal(b1-4)GlcNAc
# Procedure, shortened: as §1
# [25] = target: Gal(b1-4)GlcNAc(b1-3)Gal(b1-4)GlcNAc(b1-2)Man(a1-3)[Gal(b1-4)GlcNAc(b1-3)Gal(b1-4)GlcNAc(b1-2)Man(a1-6)]Man(b1-4)GlcNAc(b1-4)GlcNAc
# Procedure, shortened: as §1
# [26] = target: Gal(b1-4)GlcNAc(b1-3)Gal(b1-4)GlcNAc(b1-2)Man(a1-3)[Gal(b1-4)GlcNAc(b1-3)Gal(b1-4)GlcNAc(b1-2)Man(a1-6)]Man(b1-4)GlcNAc(b1-4)[Fuc(a1-6)]GlcNAc
# Procedure, shortened: as §1
# [27] = target: Gal(b1-4)GlcNAc(b1-3)Gal(b1-4)GlcNAc(b1-2)[Gal(b1-4)GlcNAc(b1-3)Gal(b1-4)GlcNAc(b1-6)]Man(a1-6)[Gal(b1-4)GlcNAc(b1-3)Gal(b1-4)GlcNAc(b1-2)Man(a1-3)]Man(b1-4)GlcNAc(b1-4)GlcNAc
# Procedure, shortened: as §1
# [28] = target: Gal(b1-4)GlcNAc(b1-3)Gal(b1-4)GlcNAc(b1-2)[Gal(b1-4)GlcNAc(b1-3)Gal(b1-4)GlcNAc(b1-6)]Man(a1-6)[Gal(b1-4)GlcNAc(b1-3)Gal(b1-4)GlcNAc(b1-2)Man(a1-3)]Man(b1-4)GlcNAc(b1-4)[Fuc(a1-6)]GlcNAc
# Procedure, shortened: as §1
# [29] = target: Gal(b1-4)GlcNAc(b1-3)Gal(b1-4)GlcNAc(b1-3)Gal(b1-4)GlcNAc
# Procedure, shortened: as §1
# [30] = target: Gal(b1-4)GlcNAc(b1-3)Gal(b1-4)GlcNAc(b1-3)Gal(b1-4)GlcNAc(b1-2)Man(a1-3)[Gal(b1-4)GlcNAc(b1-3)Gal(b1-4)GlcNAc(b1-3)Gal(b1-4)GlcNAc(b1-2)Man(a1-6)]Man(b1-4)GlcNAc(b1-4)GlcNAc
# Procedure, shortened: as §1
# [31] = target: Gal(b1-4)GlcNAc(b1-3)Gal(b1-4)GlcNAc(b1-3)Gal(b1-4)GlcNAc(b1-2)Man(a1-3)[Gal(b1-4)GlcNAc(b1-3)Gal(b1-4)GlcNAc(b1-3)Gal(b1-4)GlcNAc(b1-2)Man(a1-6)]Man(b1-4)GlcNAc(b1-4)[Fuc(a1-6)]GlcNAc
# Procedure, shortened: as §1
# [32] = target: Gal(b1-4)GlcNAc(b1-3)Gal(b1-4)GlcNAc(b1-3)Gal(b1-4)GlcNAc(b1-2)[Gal(b1-4)GlcNAc(b1-3)Gal(b1-4)GlcNAc(b1-3)Gal(b1-4)GlcNAc(b1-6)]Man(a1-6)[Gal(b1-4)GlcNAc(b1-3)Gal(b1-4)GlcNAc(b1-3)Gal(b1-4)GlcNAc(b1-2)Man(a1-3)]Man(b1-4)GlcNAc(b1-4)[Fuc(a1-6)]GlcNAc
# Procedure, shortened: as §1
# [33] = target: Gal(b1-4)GlcNAc(b1-3)Gal(b1-4)GlcNAc(b1-3)Gal(b1-4)GlcNAc(b1-3)Gal(b1-4)GlcNAc(b1-2)Man(a1-3)[Gal(b1-4)GlcNAc(b1-3)Gal(b1-4)GlcNAc(b1-3)Gal(b1-4)GlcNAc(b1-3)Gal(b1-4)GlcNAc(b1-2)Man(a1-6)]Man(b1-4)GlcNAc(b1-4)GlcNAc
# Procedure, shortened: as §1
binder,measurement,setting,value
B1,glycan array binding signal (z-score),Gal(b1-4)Glc,-0.775
same,glycan array binding signal (z-score),Gal(b1-4)Glc6S,-0.531
same,glycan array binding signal (z-score),Gal(b1-4)GlcNAc,-0.414
same,glycan array binding signal (z-score),[1],-0.212
same,glycan array binding signal (z-score),Gal(b1-4)GlcNAc(b1-2)Man,0.74
same,glycan array binding signal (z-score),[2],-0.313
same,glycan array binding signal (z-score),[3],-0.791
same,glycan array binding signal (z-score),[4],0.949
same,glycan array binding signal (z-score),[5],-0.179
same,glycan array binding signal (z-score),[6],1.54
same,glycan array binding signal (z-score),[7],-2.08
same,glycan array binding signal (z-score),[8],-0.43
same,glycan array binding signal (z-score),[9],0.249
same,glycan array binding signal (z-score),[10],1.23
same,glycan array binding signal (z-score),[11],-0.574
same,glycan array binding signal (z-score),[12],-0.463
same,glycan array binding signal (z-score),[13],1.09
same,glycan array binding signal (z-score),[14],-0.621
same,glycan array binding signal (z-score),[15],-1.15
same,glycan array binding signal (z-score),[16],-1.11
same,glycan array binding signal (z-score),[17],1.52
same,glycan array binding signal (z-score),[18],0.941
same,glycan array binding signal (z-score),[19],-0.08
same,glycan array binding signal (z-score),[20],-0.876
same,glycan array binding signal (z-score),[21],-1.84
same,glycan array binding signal (z-score),[22],-0.688
same,glycan array binding signal (z-score),[23],-0.967
same,glycan array binding signal (z-score),[24],-1.63
same,glycan array binding signal (z-score),[25],0.323
same,glycan array binding signal (z-score),[26],0.22
same,glycan array binding signal (z-score),[27],-0.575
same,glycan array binding signal (z-score),[28],1.91
same,glycan array binding signal (z-score),[29],0.391
same,glycan array binding signal (z-score),[30],-0.371
same,glycan array binding signal (z-score),[31],1.89
same,glycan array binding signal (z-score),[32],1.18
same,glycan array binding signal (z-score),[33],0.564

# For convenience, some entries already given.
binder,measurement,setting,value
B1,glycan array binding signal (z-score),[31],1.89
same,glycan array binding signal (z-score),[32],1.18
